Measurements taken from paper PMC3953594.
No constants are given. Whether binding was seen depends on the method and setting. In cells and extracts the contact can be indirect. A result given as binding can be weak or reduced; the word gives no strength.

Chains of the proteins cited; added tags and fusions are not shown. Lines headed by an entry give the natural chain unless they say otherwise; changes in a name come on top.
UniProt Q9HBH7: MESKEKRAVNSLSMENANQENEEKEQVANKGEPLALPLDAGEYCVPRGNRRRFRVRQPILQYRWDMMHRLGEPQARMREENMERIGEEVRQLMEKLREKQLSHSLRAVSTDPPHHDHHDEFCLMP
UniProt P10415: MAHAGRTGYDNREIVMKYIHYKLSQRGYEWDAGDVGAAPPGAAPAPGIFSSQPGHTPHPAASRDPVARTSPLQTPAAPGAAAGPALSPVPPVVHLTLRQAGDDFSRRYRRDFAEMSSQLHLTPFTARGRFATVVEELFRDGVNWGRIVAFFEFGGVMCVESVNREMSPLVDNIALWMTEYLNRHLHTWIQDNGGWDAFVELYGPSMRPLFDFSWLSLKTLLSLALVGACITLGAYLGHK

Key:
[1] = biological target: HA-tagged BEX1 truncated mutant, residues 1-64 (human) (UniProt Q9HBH7); test: co-IP; lysates of HEK293 cells transfected with pCMV-HA constructs of BEX1; rabbit anti-BCL-2 or rabbit anti-HA antibody overnight at 4°C, protein A/G-agarose, washes in 1% CHAPS; blot with anti-HA or anti-BCL-2
[2] = biological target: HA-tagged BEX1 truncated mutant, residues 1-96 (human) (UniProt Q9HBH7); test: as above

## B-cell lymphoma 2 (BCL-2), endogenous (from UniProt P10415 1-239)
[1]
  binding: binds
[2]
  binding: binds
